This is one part of the list. Many values rest on one well or one pass, so single values are uncertain.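 Cells were imaged in 1,536-well plates, and nuclei stained with an antibody against cleaved PARP were counted against all DNA-stained nuclei to give the apoptosis fraction. Screening doses were chosen to leave most cells alive, and resting and induced cleaved-PARP levels differ strongly between cell lines.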
What was measured:
Assay in all cases: cleaved PARP positive nuclei fraction relative to DMSO control; melanoma cells; higher = more apoptosis
Conditions in all cases: library dose: low library concentration; 72 h
MZ2-MEL = tested on: MZ2-MEL
MeWo = tested on: MeWo
RPMI7951 = tested on: RPMI7951
RVH-421 = tested on: RVH-421
SkMel28 = tested on: SkMel28
SkMel2 = tested on: SkMel2
SkMel30 = tested on: SkMel30
SkMel5 = tested on: SkMel5
UACC257 = tested on: UACC257
UACC62 = tested on: UACC62
WM115 = tested on: WM115
WM1716 = tested on: WM1716
WM1745 = tested on: WM1745
WM3526 = tested on: WM3526
WM3619 = tested on: WM3619
WM451Lu = tested on: WM451Lu

SMILES	cleaved PARP positive nuclei fraction (MZ2-MEL)	cleaved PARP positive nuclei fraction (MeWo)	cleaved PARP positive nuclei fraction (RPMI7951)	cleaved PARP positive nuclei fraction (RVH-421)	cleaved PARP positive nuclei fraction (SkMel28)	cleaved PARP positive nuclei fraction (SkMel2)	cleaved PARP positive nuclei fraction (SkMel30)	cleaved PARP positive nuclei fraction (SkMel5)	cleaved PARP positive nuclei fraction (UACC257)	cleaved PARP positive nuclei fraction (UACC62)	cleaved PARP positive nuclei fraction (WM115)	cleaved PARP positive nuclei fraction (WM1716)	cleaved PARP positive nuclei fraction (WM1745)	cleaved PARP positive nuclei fraction (WM3526)	cleaved PARP positive nuclei fraction (WM3619)	cleaved PARP positive nuclei fraction (WM451Lu)
CN1CCN(c2ccc3nc(-c4c(N)c5c(F)cccc5[nH]c4=O)[nH]c3c2)CC1 [Dovitinib] + CCCCCCCCCCCC1=C(O)C(=O)C=C(O)C1=O [Embelin] (first compound 0.1 µM, partner dose 1.2 µM)	65.8%	97.5%	213%	45.8%	86.7%	120%	173%	162%	255%	125%	112%	62.3%	137%	37.9%	105%	23.8%
O=C(O)[C@@H]1[O][Sb](=[O])([O][Sb]2(=[O])[O][C@H]([C@H](O)CO)[C@H](O)[C@H](C(=O)O)[O]2)[O][C@H]([C@H](O)CO)[C@@H]1O (some centres not stated) [stibogluconate] + COC(=O)c1sccc1S(=O)(=O)Nc1ccc(Nc2ccccc2)cc1OC [GSK0660] (first compound 2 µM, partner dose 1 µM)	106%	103%	126%	68.8%	147%	42.9%	26.2%	67.8%	284%	78.6%	46.4%	127%	83.9%	132%	72%	59.5%
CN1CCN(c2ccc3nc(-c4c(N)c5c(F)cccc5[nH]c4=O)[nH]c3c2)CC1 [Dovitinib] + Clc1ccc(Nc2nnc(Cc3ccncc3)c3ccccc23)cc1 [vatalanib] (first compound 0.1 µM, partner dose 2 µM)	46%	149%	177%	74.8%	47.7%	109%	317%	–	–	92%	117%	74.4%	121%	41.1%	104%	360%
Cc1cc(Nc2cc(N3CCN(C)CC3)nc(/C=C/c3ccccc3)n2)n[nH]1 + C=CCn1c(=O)c2cnc(Nc3ccc(N4CCN(C)CC4)cc3)nc2n1-c1cccc(C(C)(C)O)n1 [MK1775] (first compound 0.04 µM, partner dose 0.02 µM)	70.2%	71.2%	105%	43.7%	306%	87.2%	78.6%	68.3%	150%	333%	61.6%	54.5%	125%	66%	125%	118%
CCCS(=O)(=O)Nc1ccc(F)c(C(=O)c2c[nH]c3ncc(Cl)cc23)c1F + O=C(Nc1cccc(Cl)c1)Nc1ncc(CCNc2ncnc3ccsc23)s1 [SNS314] (first compound 0.08 µM, partner dose 0.0008 µM)	109%	49.1%	50.6%	45.1%	74%	89.1%	21.7%	50.5%	66.3%	180%	54%	90.3%	101%	83.1%	103%	46.1%
C[C@@H](Oc1cc(-c2cnn(C3CCNCC3)c2)cnc1N)c1c(Cl)ccc(F)c1Cl [Crizotinib] + COc1cc2ncnc(Nc3ccc(Oc4ccccc4)cc3)c2cc1OC [SrcI1] (first compound 0.2 µM, partner dose 2 µM)	66.6%	62.4%	49.1%	23.7%	119%	120%	231%	296%	50.9%	64.2%	51.3%	51.9%	95%	37.3%	121%	61.5%
O=C(O)[C@@H]1[O][Sb](=[O])([O][Sb]2(=[O])[O][C@H]([C@H](O)CO)[C@H](O)[C@H](C(=O)O)[O]2)[O][C@H]([C@H](O)CO)[C@@H]1O (some centres not stated) [stibogluconate] + COc1cc2c(Oc3ccc4[nH]c(C)cc4c3F)ncnc2cc1OCCCN1CCCC1 [cediranib] (first compound 2 µM, partner dose 0.4 µM)	49.6%	49.6%	172%	76.2%	92.1%	134%	64%	37.9%	255%	62.8%	95.2%	140%	101%	55.6%	77%	97.3%
CNC(=O)c1cc(Oc2ccc(NC(=O)Nc3ccc(Cl)c(C(F)(F)F)c3)cc2)ccn1 [sorafenib] + CO[C@@H]1[C@H](N(C)C(=O)c2ccccc2)C[C@H]2O[C@]1(C)n1c3ccccc3c3c4c(c5c6ccccc6n2c5c31)C(=O)NC4 [Midostaurin] (first compound 0.4 µM, partner dose 0.08 µM)	56.8%	192%	84.2%	333%	352%	55.9%	23.7%	276%	383%	174%	115%	180%	128%	61.4%	128%	293%
CC(C)C[C@H](NC(=O)[C@H](Cc1ccccc1)NC(=O)c1cnccn1)B(O)O [Bortezomib] + O=S(=O)(c1ccccc1)N(CC(F)(F)F)c1ccc(C(O)(C(F)(F)F)C(F)(F)F)cc1 [T0901317] (first compound 0.001 µM, partner dose 1.4 µM)	407%	52.1%	812%	390%	207%	119%	120%	80.8%	385%	248%	101%	4970%	195%	90.5%	668%	203%

Copied from the list:
Entry for C[C@@H](Oc1cc(-c2cnn(C3CCNCC3)c2)cnc1N)c1c(Cl)ccc(F)c1Cl [Crizotinib] + COc1cc2ncnc(Nc3ccc(Oc4ccccc4)cc3)c2cc1OC [SrcI1] (first compound 0.2 µM, partner dose 2 µM) under cleaved PARP positive nuclei fraction (SkMel2): 120%
Entry for CNC(=O)c1cc(Oc2ccc(NC(=O)Nc3ccc(Cl)c(C(F)(F)F)c3)cc2)ccn1 [sorafenib] + CO[C@@H]1[C@H](N(C)C(=O)c2ccccc2)C[C@H]2O[C@]1(C)n1c3ccccc3c3c4c(c5c6ccccc6n2c5c31)C(=O)NC4 [Midostaurin] (first compound 0.4 µM, partner dose 0.08 µM) under cleaved PARP positive nuclei fraction (SkMel5): 276%

Source: the supplement of paper PMC4604168 (melanoma cell lines)
